Data published in US10082496B2, “Targeting emopamil binding protein (EBP) with small molecules that induce an abnormal feedback response by lowering endogenous cholesterol biosynthesis” (Board of Regents of the University of Texas System, priority 2014, dated 2018).
For at least one compound, name, drawing or mass did not settle the structure.

What was measured:
[1] = system: DLD1 cells; assay: Dose response studies in CRC line DLD1 (truncated APC); assay type: cell-based, human; details: 0.2% serum or 2% LPPS
Description: These 14 compounds then were obtained commercially and their IC50 determined by performing dose response studies with half log dilution series at 12 concentration points in two authentic CRC lines: HCT116 (wt APC) and DLD1 (truncated APC).
DLD-1 cells normally are cultured in 10% serum medium, and they are rapidly shifted to 0.2% serum medium for dose response studies.

[2] = system: DLD1 tumors; assay: DLD1 xenograft mouse model; assay type: in vivo
[3] = system: HCT116 (WT APC) xenografts; assay: HCT116 xenografts; set-up: species or system mice; details: mouse, in vivo
[4] = system: colorectal tumors in CPC;Apc mice; assay: CPC;Apc genetically engineered mouse model of colorectal tumors; assay type: in vivo; details: 20 mg/kg/injection intraperitoneally twice a week for 90 days
Description: These mice carry a CDX2P-NLS Cre recombinase transgene and a loxP-targeted Apc allele that deletes exon 14, leading to a frame shift at codon 580 and a truncated APC protein (Hinoi, T. et al. Mouse model of colonic adenoma-carcinoma progression based on somatic Apc inactivation. Cancer Res 67, 9721-9730 (2007)). […] Weights were measured every 15 days over the treatment period. These studies were performed according to the guidelines of the UT Southwestern Institutional Animal Care and Use Committee.

[5] = system: DLD1 cells; assay: Soft agar growth, DLD1; assay type: cell-based, human; details: sustained treatment
[6] = system: DLD1 and HT29 cells; assay: Endogenous cholesterol biosynthesis (14C acetate), truncated APC cells; assay type: cell-based, human; details: 40 h incubation, 8 hours 14C acetate label
[7] = system: HCT116 cells; assay: Soft agar growth, HCT116; assay type: cell-based, human; details: sustained treatment
[8] = system: HCT116 and RKO colon cancer cells; assay: Endogenous cholesterol biosynthesis (14C acetate), wild type APC cells; assay type: cell-based, human; details: 40 h incubation, 8 hours 14C acetate label
[9] = system: colon polyps in CPC;Apc mice; assay: CPC;Apc mice on high fat diet; assay type: in vivo; details: high fat diet (12.8% fat) for about 10 weeks

With `COc1ccc(S(=O)(=O)N2CCC(N3CCC(C)CC3)CC2)cc1` [TASIN-1] the “activity on DLD-1 cells by serum condition (FIG. 2)” value [1] was “active only in 0.2% serum or 2% lipoprotein deficient serum (LPPS) media conditions”, the “size of tumor xenografts and tumor growth rates” value ([2]; 40 mg/kg intraperitoneally twice daily for 18 days, vs control mice) was “reduced the size of tumor xenografts and reduced tumor growth rates” and the “apoptotic marker cleaved caspase 3 in excised tumors (immunohistochemistry)” value ([2]; treated DLD1 tumors vs control tumors) was “significant increase”. The “tumor growth in HCT116 (WT APC) xenografts” value [3] was “did not inhibit tumor growth”, the “size of benign tumors (polyps) vs control group” value [4] was “much smaller” and the “tumor formation in the colon” value [4] was “significant reduction in tumor formation”. For the same compound, the “soft agar growth in DLD1” value [5] was “inhibited soft agar growth”, the “cholesterol biosynthesis in cells expressing truncated APC” value [6] was “reduces cholesterol biosynthesis” and the “soft agar growth in HCT116” value [7] was “not in HCT116 cells”. The “cholesterol biosynthesis in cells expressing wild type APC” value [8] was “not in cells expressing wild type APC” and the “polyp formation and size” value [9] was “reduced polyp formation and size”.
